Here are results for 2 molecules from patent publication US20120021039A1, “EXPRESSION OF NEUROPEPTIDES IN MAMMALIAN CELLS” (NsGene A/S, priority 2009, published 2012).

This series has as its system ARPE-19 cells. The series can be described thus: Galanin ELISA of supernatants from ARPE-19 cells transfected with galanin expression constructs. The class given is cell-based, human. The settings on record: supernatant of transfected ARPE-19 cells. (In general: An ELISA detects its analyte on a solid surface through an enzyme-linked reagent.)

B1: full length wild type galanin: comparative construct: wild-type human galanin pre-pro-mature-C-terminal peptide (SEQ ID NO 11) (protein, listed as Homo sapiens)
chain: MARGSALLLASLLLAAALSASAGLWSPAKEKRGWTLNSAGYLLGPHAVGNHRSFSDKNGLTSKRELRPEDDMKPGSFDRSIPENNIMRTIIEFLSFLHLKEAGALDRLLDLPAAASSEDIERS
Turning to B1, the galanin secretion result was “leads to secretion of galanin”.

B2: ppGDNF fused to mature galanin: comparative construct: ppGDNF fused to mature human galanin peptide (SEQ ID NO 12) (protein, listed as Homo sapiens)
chain: MKLWDVVAVCLVLLHTASAFPLPAGKRPPEAPAEDRSLGRRRAPFALSSDSNMPEDYPDQFDDVMDFIQATIKRLKRGWTLNSAGYLLGPHAVGNHRSFSDKNGLTS
Take B2: the galanin secretion result was “lead to secretion, but the propeptide was not processed”.
